Results are given in words; binding and its absence hold for the method and conditions named.
Target: six-histidine (6xHIS)-tagged Mpt64 (Rv1980c) (Mycobacterium tuberculosis) (UniProt P9WIN9)
Test: pull-down; both purified

Sequences of proteins named here, by UniProt entry; tags and fusion partners are left off. Residues count along the entry.
UniProt P9WIN9, residues 25-228: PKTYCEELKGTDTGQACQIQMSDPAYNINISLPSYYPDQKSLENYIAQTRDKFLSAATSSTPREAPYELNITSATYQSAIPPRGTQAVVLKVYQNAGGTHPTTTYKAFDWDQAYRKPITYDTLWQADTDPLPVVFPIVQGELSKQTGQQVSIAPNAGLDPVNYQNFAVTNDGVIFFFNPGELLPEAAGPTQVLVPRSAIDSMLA

Molecule | binding
hen egg white lysozyme (from UniProt P00698 19-147) (enzyme) | no binding (tested: 1 mg/ml)
human lysozyme (enzyme, UniProt P61626 19-148) KVFERCELARTLKRLGMDGYRGISLANWMCLAKWESGYNTRATNYNAGDRSTDYGIFQINSRYWCNDGKTPGAVNACHLSCSALLQDNIADAVACAKRVVRDPQGIRAWVAWRNRCQNRDVRQYVQGCGV | no binding (tested: 1 mg/ml)
